# Test results taken from patent US20220308043A1, “FLUORESCENT PROBES FOR IDENTIFICATION AND QUANTIFICATION OF HEPATIC TRANSPORTERS IN VITRO AND IN VIVO” (Université d'Orléans, priority 2021, published 2022).
# Key:
# bile canaliculi = experiment: Fluorescence intensity detection in bile canaliculi (FIG. 3); type: cell-based, human
# bile system = experiment: Diagnostic tool for the function of the bile system in vivo (injection in the portal vein); conditions: rat
# [1] = portal vein injection, 30 seconds and 2 minutes after injection, FIG. 10
Compound,fluorescence intensity located in bile canaliculi (bile canaliculi),"fluorescence of the biliary network of the liver and the bile duct (bile system; between 0.1 mg and 1 mg into the portal vein, after 30 seconds and 2 minutes, UV light)",fluorescence of the bile duct (bile system; [1]),fluorescence of the liver (bile system; [1])
Tauro-nor-THCA-24-DBD [reference compound],much weaker fluorescence signal,,,
"COC(=O)C(CCCCNC(=O)CCc1ccc2n1[B-](F)(F)[N+]1=C(C)C=C(C)C1=C2)NC(=O)CCC(C)C1CCC2C3C(O)CC4CC(O)CCC4(C)C3CCC12C [Compound 54, Methyl N6-(3-(5,5-difluoro-7,9-dimethyl-5H-dipyrrolo[1,2-c:2′,1′-f][1,3,2]diazaborinin-3-yl)propanoyl)-N2-((4R)-4-((3R,7S,10S,13R,17R)-3,7-dihydroxy-10,13-dimethylhexadecahydro-1H-cyclopenta[a]phenanthren-17-yl)pentanoyl)-L-lysinate]",very strong fluorescence intensity,,,
"COC(=O)[C@H](CCCCNc1ccc([N+](=O)[O-])c2nonc12)NC(=O)CC[C@@H](C)C1CCC2C3C(CC[C@@]21C)[C@@]1(C)CC[C@@H](O)CC1C[C@@H]3O (stereo partly drawn) [Compound 15, Methyl-N2-((4R)-4-((3R,7S,10S,13R)-3,7-dihydroxy-10,13-dimethylhexadecahydro-1H-cyclopenta[a]phenanthren-17-yl)pentanoyl)-N6-(7-nitrobenzo[c][1,2,5]oxadiazol-4-yl)-L-lysinate]",weaker fluorescence signal,,,
"COC(=O)CNC(=O)C(CCCCNC(=O)CCc1ccc2n1[B-](F)(F)[N+]1=C(C)C=C(C)C1=C2)NC(=O)CCC(C)C1CCC2C3C(O)CC4CC(O)CCC4(C)C3CCC12C [Compound 55, Methyl-N6-(3-(5,5-difluoro-7,9-dimethyl-5H-dipyrrolo[1,2-c:2′,1′-f][1,3,2]diazaborinin-3-yl)propanoyl)-N2-((4R)-4-((3R,7S,10S,13R,17R)-3,7-dihydroxy-10,13-dimethylhexadecahydro-1H-cyclopenta[a]phenanthren-17-yl)pentanoyl)-L-lysylglycinate]",very strong fluorescence intensity,fluoresces,significant fluorescence,slightly fluorescent
